These results are taken from the supplement of paper PMC6119338.

The other results are listed elsewhere or left out. Most values come without repeats; read them as rough. A value given as a limit tells only on which side of the number the result lay.

The subject of the assay is Plasmodium berghei sporozoites. Kind of assay: residual sporozoite gliding motility relative to DMSO control; higher = less inhibition of motility. The settings on record: 10 µM; incubation time 30 min.
For the compound `O=C1c2ccc3c4c(ccc(c24)C(=O)N1CCCCO)C(=O)N(CCCCO)C3=O`, the “residual sporozoite gliding motility” value was above 50%.

Turning to `COc1ccc(C2=C(c3ccc(OC)cc3)C3(c4ccccc4)C(=O)C2(c2ccccc2)C2C(=O)N(c4ccc(C)cc4)C(=O)C23)cc1` (stereo unspecified), the “residual sporozoite gliding motility” value was above 50%.

Turning to `CCN(CC)CCNc1ncnc2c1[nH]c1ccc(Br)cc12`, the “residual sporozoite gliding motility” value is above 50%.

As for `O=C(Nc1ccc(-c2nc3cc4ccccc4cc3[nH]2)cc1)c1cccc(Br)c1`, the “residual sporozoite gliding motility” value was above 50%.

Consider `CCOc1ccc(C2N(C)c3ccccc3N2C)cc1`, for which the “residual sporozoite gliding motility” value was above 50%.

For the compound `COc1ccc(C2Sc3ccccc3N=C3C2=C(O)c2ccccc23)cc1` (stereo unspecified), the “residual sporozoite gliding motility” value was above 50%.

`CCOC(=O)C1(Cc2ccccc2)CCN(Cc2cccc(OC)c2O)CC1`: the “residual sporozoite gliding motility” value is above 50%.

`CSC1=NC(=Nc2c(C)cccc2C)C2(CCC(C(C)(C)C)CC2)N1c1ccc(Cl)cc1` (stereo unspecified): the “residual sporozoite gliding motility” value is above 50%.

On to `COC(=O)c1ccc(Cl)c2c1C1C=CCC1C(c1cccc3ccccc13)N2` (stereo unspecified), for which the “residual sporozoite gliding motility” value was above 50%.

On to `COc1ccc2c(c1OC)C(=O)N1c3ccccc3N=C(c3ccc(C)cc3)CC21` (stereo unspecified), for which the “residual sporozoite gliding motility” value is above 50%.

On to `O=C(Nc1ccccc1O)c1ccc(Oc2cccc(C(=O)Nc3ccccc3O)c2)cc1`, for which the “residual sporozoite gliding motility” value was above 50%.

On to `COc1ccc(C2N(C)c3ccccc3N2C)cc1`, for which the “residual sporozoite gliding motility” value was above 50%.

In the case of `CC(=O)c1sc(NC(=O)Nc2ccc(C)cc2C)nc1C`, the “residual sporozoite gliding motility” value is above 50%.

As to `CCCCc1ccc(NS(=O)(=O)c2cc3c4c(c2)CCN4C(=O)CC3)cc1`, the “residual sporozoite gliding motility” value was above 50%.

`COc1ccc(-c2cc(=O)oc3c4c(ccc23)OCN(Cc2ccc(F)cc2)C4)cc1`: the “residual sporozoite gliding motility” value was above 50%.

Consider `OC(CNC1CCCCC1)Cn1c2ccccc2c2ccccc21` (stereo unspecified), for which the “residual sporozoite gliding motility” value was above 50%.

For the compound `CCOc1c(Br)cc(C2C(C(=O)OC)=CN(C)C=C2C(=O)OC)cc1OC`, the “residual sporozoite gliding motility” value was above 50%.

`Nc1ccc(-c2nc3cc(Cc4ccc5[nH]c(-c6ccc(N)cc6)nc5c4)ccc3[nH]2)cc1`: the “residual sporozoite gliding motility” value is above 50%.

In the case of `O=C(Nc1ccsc1C(=O)NC1CCCCC1)c1ccc(F)cc1`, the “residual sporozoite gliding motility” value was above 50%.

Take `Cc1nc2ccccc2c(O)c1CC=C(Cl)Cl`: the “residual sporozoite gliding motility” value was above 50%.

As to `Cc1cc(NC(=O)c2cccc(C(F)(F)F)c2)n(-c2nc(-c3ccc4c(c3)OCO4)cs2)n1`, the “residual sporozoite gliding motility” value was above 50%.

As to `COc1cc2c3cc1Oc1c(OC)c(OC)cc4c1C(Cc1ccc(O)c(c1)Oc1ccc(cc1)CC3N(C)CC2)N(C)CC4` (stereo unspecified), the “residual sporozoite gliding motility” value was above 50%.

Consider `COc1ccc(NC(=O)C2c3ccccc3C(=O)N(CC(C)C)C2c2cccs2)cc1` (stereo unspecified), for which the “residual sporozoite gliding motility” value was above 50%.

For the compound `Cc1cccc(Nc2nc(N)c3ccccc3n2)c1`, the “residual sporozoite gliding motility” value was above 50%.

Consider `COc1ccc(C)c2sc(N(Cc3cccnc3)C(=O)c3ccc(C#N)cc3)nc12`, for which the “residual sporozoite gliding motility” value was above 50%.

As for `COc1ccccc1CNC(=O)CCn1c(=O)[nH]c2ccccc2c1=O`, the “residual sporozoite gliding motility” value is above 50%.

On to `CCOC(=O)c1cnc2c(C)cc(C)cc2c1Nc1ccc(OC)c(OC)c1`, for which the “residual sporozoite gliding motility” value was above 50%.

For the compound `CCc1ccc(CNCC(O)c2ccccc2)cc1` (stereo unspecified), the “residual sporozoite gliding motility” value is above 50%.

Turning to `CCc1ccc(Nc2cc(C)c3ccc(O)cc3n2)cc1`, the “residual sporozoite gliding motility” value was above 50%.

Regarding `Cc1ccc2cc3c(N)c4c(C)ccc(C)c4nc3nc2c1`, the “residual sporozoite gliding motility” value was above 50%.

As for `CCCn1c(=N)c(C(=O)NC2CCCCC2)cc2c(=O)n3cccc(C)c3nc21`, the “residual sporozoite gliding motility” value was above 50%.

On to `Cc1c(C)n(Cc2ccc(F)cc2)c2ccc(C(=O)NCc3ccco3)cc12`, for which the “residual sporozoite gliding motility” value was above 50%.

As for `COc1ccc(NC(=O)C2c3ccccc3C(=O)N(CC(C)C)C2c2cccs2)cc1Cl` (stereo unspecified), the “residual sporozoite gliding motility” value is above 50%.

As for `OC1CCCCC1C1(NC(=S)Nc2ccccc2)CCCCC1` (stereo unspecified), the “residual sporozoite gliding motility” value is above 50%.

Take `COc1ccc(Nc2cc(C)nc(NCc3ccccc3)n2)cc1`: the “residual sporozoite gliding motility” value was above 50%.

With `O=C(CSc1ccc2nnc(-c3cccc(F)c3)n2n1)Nc1ccc2c(c1)OCO2`, the “residual sporozoite gliding motility” value is above 50%.
